Source: PubChem BioAssay AID493014 (National Center for Advancing Translational Sciences (NCATS), 2011)
The other results are listed elsewhere or left out. These are further read-outs of the screen, such as a control signal, another cell line or another target. No call is given for them. The list favours compounds with an active or inconclusive main result. Potencies come from curve fits of mixed quality, noted in brackets.

assay: qHTS Assay to Find Inhibitors of Chronic Active B-Cell Receptor Signaling; settings: ABC-DLBCL IkBa-CBG/CBR reporter, luminescence ratio (green luciferase fused to IkBa over red control in TMD8 lymphoma cells), 4 h; measured here: CBR red luminescence, cell number
Method in brief: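 Compounds up to 46 uM were incubated four hours with TMD8 cells whose green CBG68 luciferase is fused to IkappaBalpha; red CBR luminescence normalised the signal, and concentration-effect curves were fitted to fusion, red and ratio data.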

| Compound | AC50 |
| --- | --- |
| C(=C\c1ccccc1)/CSc1nnc(-c2cnccn2)n1Cc1ccco1 | 16.4 µM [falling, partial curve] |
| O=C(CC1Oc2ccccc2NC1=O)NCCc1ccccc1 (centres undefined) | 9.2 µM [falling, single point] |
| COc1ccc(Cc2nnc(NC(=O)c3cc(OC)cc(OC)c3)s2)cc1 | 8.91 µM [rising, partial curve] |
| COc1ccccc1N1CCN(C(=O)CCSCc2ccccc2F)CC1 | 3.16 µM [rising, partial curve, poor fit] |
| O=C(Nc1nccs1)c1cn(-c2ccccc2)nc1-c1ccccc1 | 0.231 µM [falling, full curve] |
| Cc1cc(C(=O)Nc2ccc3[nH]ccc3c2)no1 | 11.2 µM [falling, partial curve] |
| Cc1ccc(S(=O)(=O)n2ccc3c(OCCOCCNCc4ccc(F)cc4)cccc32)cc1 | 12.6 µM [falling, single point] |
| CC1=CC(=O)N(c2ccn(C)n2)C1=O | 11.2 µM [falling, single point] |
| COc1ccc(-n2nnnc2SCC(=O)c2ccc3c(c2)OCCO3)cc1 | 2.91 µM [rising, full curve, poor fit] |
| O=C1N=C(N2CCN(c3ccccc3)CC2)S/C1=C/c1ccco1 | 1.12 µM [rising, full curve, poor fit] |
| COc1ccc(/C=C/c2nnc(NC(C)=O)s2)cc1 | 11.2 µM [falling, partial curve, poor fit] |
| COc1ccc2c(c1)[nH]c1c(=O)n(CCc3cnc[nH]3)cnc12 | 9.2 µM [falling, partial curve, poor fit] |
| CCOc1ccc(NC(=O)CN(C)S(=O)(=O)c2ccc3c(c2)CCC(=O)N3)cc1 | 3.98 µM [rising, full curve, poor fit] |
| CCc1ccc(-c2cc(C(=O)NN3CCN(C)CC3)c3ccccc3n2)cc1 | 13 µM [falling, partial curve] |
| COc1ccc2nc(NC(=O)NC3CCCCC3)sc2c1 | 11.2 µM [falling, partial curve, poor fit] |
| O=C(Oc1ccc(NC(=O)c2cc3c(cc2Br)OCO3)cc1)c1ccccc1 | 2.24 µM [falling, full curve, poor fit] |
| Cn1ncc2c(O/N=C(\N)c3ccc(C(C)(C)C)cc3)ncnc21 | 20 µM [falling, single point] |
| Cc1cccc(CN2CCN(CCCc3ccccc3)CC2)c1 | 11.2 µM [rising, single point] |
| CC(=O)c1sc(NC(=O)CCOc2ccccc2)nc1C | 15.8 µM [falling, single point] |

3 structures from above, arranged by length of the SMILES, ascending.

| Compound | AC50 |
| --- | --- |
| CC(=O)c1sc(NC(=O)CCOc2ccccc2)nc1C | 15.8 µM [falling, single point] |
| CCc1ccc(-c2cc(C(=O)NN3CCN(C)CC3)c3ccccc3n2)cc1 | 13 µM [falling, partial curve] |
| Cc1ccc(S(=O)(=O)n2ccc3c(OCCOCCNCc4ccc(F)cc4)cccc32)cc1 | 12.6 µM [falling, single point] |
